Data from patent US12404312B2, “Engineered VEGF variants for retinal neuroprotection, promotion of axon growth and axon regeneration” (Massachusetts Eye and Ear Infirmary, priority 2018, dated 2025).

B1: eVEGF-38: engineered covalently linked dimer of VEGF121 isoform with a 38 amino acid glycine-rich linker connected to a GPI anchor (SEQ ID NO: 1) (protein)
chain: MNFLLSWVHWSLALLLYLHHAKWSQAAPMAEGGGQNHHEVVKFMDVYQRSYCHPIETLVDIFQEYPDEIEYIFKPSCVPLMRCGGCCNDEGLECVPTEESNITMQIMRIKPHQGQHIGEMSFLQHNKCECRPKKDRARQEKCDKPRRGGSSGGSSGGSGGGTGGGSGAPMAEGGGQNHHEVVKFMDVYQRSYCHPIETLVDIFQEYPDEIEYIFKPSCVPLMRCGGCCNDEGLECVPTEESNITMQIMRIKPHQGQHIGEMSFLQHNKCECRPKKDRARQEKCDKPRRGNGNGEQKLISEEDLKLAAAGNGGNGNGNGDGNGALCNGAGFATPVTLALVPALLATFWSLL
B2: eVEGF-53: engineered covalently linked dimer of VEGF121 isoform with a 53 amino acid glycine-rich linker connected to a GPI anchor (SEQ ID NO: 2) (protein)
chain: MNFLLSWVHWSLALLLYLHHAKWSQAAPMAEGGGQNHHEVVKFMDVYQRSYCHPIETLVDIFQEYPDEIEYIFKPSCVPLMRCGGCCNDEGLECVPTEESNITMQIMRIKPHQGQHIGEMSFLQHNKCECRPKKDRARQEKCDKPRRGGSSGGSSGGSGGGTGGGSGAPMAEGGGQNHHEVVKFMDVYQRSYCHPIETLVDIFQEYPDEIEYIFKPSCVPLMRCGGCCNDEGLECVPTEESNITMQIMRIKPHQGQHIGEMSFLQHNKCECRPKKDRARQEKCDKPRRGNGNGNGNGNGNGNEQKLISEEDLKLAAAGNGNGNGNGNGNGNGDGNGGALCNGAGFATPVTLALVPALLATFWSLL

Test system: human retinal endothelial cells (hREC)
Test: Transgene expression in hREC: cell lysate versus conditioned media
Assay type: cell-based

| Molecule | transgene expression in cell lysate and conditioned media |
| --- | --- |
| B1 | detected in cell lysate but not in conditioned media |
| B2 | detected in cell lysate but not in conditioned media |
